Assay results from patent publication US20170342169A1.
Results are given in words; binding and its absence hold for the method and conditions named. Some results given as binding are weak or reduced against the parent protein; the word gives no strength. Blank lines part the entries; values can stand above or below the binder they belong to.

Amino acid sequences for entries named in this document (tags omitted). A change or cut given only in a name is not applied to a line headed by its entry. Chains listed by the source or under a name are the forms on record and can include a tag or linker.
soluble form of the extracellular domain of cynomolgus (cyno) CD40 (Creative BioMart) (G7PG38, form named): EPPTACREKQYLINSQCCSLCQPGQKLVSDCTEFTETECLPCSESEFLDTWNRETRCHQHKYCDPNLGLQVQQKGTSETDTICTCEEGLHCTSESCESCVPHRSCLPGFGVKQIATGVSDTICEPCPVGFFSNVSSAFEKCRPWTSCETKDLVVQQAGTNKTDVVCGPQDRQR

Tests used:
[1] = molecular target: soluble form of the extracellular domain of cynomolgus (cyno) CD40 (Creative BioMart) (cynomolgus) (UniProt G7PG38); assay: SPR
mouse 4-1BB (mouse) = molecular target: T1, mouse 4-1BB (mouse) (UniProt P20334); assay: SPR (Biacore)
T1 sequence (looked up): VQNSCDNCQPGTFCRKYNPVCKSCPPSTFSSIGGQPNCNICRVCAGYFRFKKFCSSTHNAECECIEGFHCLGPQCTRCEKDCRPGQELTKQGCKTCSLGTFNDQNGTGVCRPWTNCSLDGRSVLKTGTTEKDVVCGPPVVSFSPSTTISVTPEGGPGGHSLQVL

- binding [1]: binds
B1: huAb8-1 (antibody, human IgG1, V domains shown)
VH: EVQLVQSGAEVKKPGSSVKVSCKASGYTFTDYYINWVRQAPGQGLEWIGWIFPGSGSVYCNEQFKGRATLTVDRSTSTAYMELSSLRSEDTAVYFCASSLGKFAYWGQGTLVTVSS
VL: DIQMTQSPSSLSASVGDRVTITCKASQSVVTAVAWYQQKPGKSPKLLIYSASNRYTGVPSRFSGSGSGTDFTLTISSLQPEDFATYFCQQYSSYPYTFGGGTKVEIK

- binding (mouse 4-1BB (mouse)): binds
B2: TABBY108-rIgG1 (antibody, V domains shown)
VH: EIQLQESGPGLVRPSQSLSLACSVTGYTITSAYDWSWIRKFPGNKMEWMGYIAYIGFTNSNPSLKSRISITRDTSKNQFFLQLKSVTTEDTATYYCARWSSYIPRYFDFWGPGTMVTVSS
VL: QAVLTQPNSVSTSLGSTVKLSCTITSGNIEDNFVHWYQHYEGRSPTTMIHNDDKRPDGVPDRFSGSIDSSSNSAFLTINNVEIEDEAIYFCHSYVSSINIFGGGTKLTVL
